Laboratory results: PubChem BioAssay AID504834 (National Center for Advancing Translational Sciences (NCATS), 2011)
Screen size: about 320,000 compounds; about 22,000 (6.9%) were called active. The shares of active, inactive and inconclusive entries below differ from those in the screen. The call rests on the fitted dose curve; in most records, active means well fitted inhibition curve with a large enough effect; inconclusive means small, poorly fitted or top-dose-only effect, or another doubt; inactive means no such curve, though single readings can be large or run the other way. Potencies beside an inconclusive call are fits to weak or partial responses and may not hold up.
Potency means the concentration at half of the fitted maximal effect.

Test: Primary qHTS for delayed death inhibitors of the malarial parasite plastid, 96 hour incubation
Conditions: P. falciparum luciferase reporter growth; series mostly up to 28.7 µM
How it was run: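 Luminescence readout: decreased luciferase signal marks inhibited growth of reporter-expressing P. falciparum in infected red cells (2% hematocrit, 0.05% parasitemia final), exposed to compound two generations (96 h, 37 C, 5% CO2).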
With `Cc1cc(C)c(S(=O)(=O)N2CCN(C(=O)CN3C(=O)NC4(CCCC4)C3=O)CC2)c(C)c1` the Potency was “inactive”. For `COCC(=O)N/N=C/c1ccc(Sc2nc3ccccc3s2)o1`, the Potency was inconclusive: 0.208 µM [inhibitor, full curve, poor fit]. With `CC(=O)Nc1ccc(OC(=O)N(C)C)cc1` the Potency was inconclusive: 10.4 µM [inhibitor, partial curve, poor fit]. In the case of `CC(Sc1nc(N)cc(=O)[nH]1)C(=O)Nc1nc2c(s1)CCCC2` (centres undefined), the Potency is reported as inconclusive: 18.5 µM [inhibitor, partial curve, poor fit]. For `O=C(Nc1nc2c(s1)CCCC2)c1ccc(Br)o1`, the Potency was “inactive”. With `C=CCn1c(CNC(=O)c2cccs2)nnc1SCC(=O)c1ccc(Br)cc1` the Potency was inconclusive: 14.7 µM [inhibitor, single point]. In the case of `COc1cccc(NC(=O)c2ccc3c(c2)N(C)CCS3)c1`, the Potency is reported as active: 7.38 µM. With `NS(=O)(=O)c1ccc(CCN2C(=O)/C(=C\c3ccc(Cl)cc3)SC2=S)cc1` the Potency was “inactive”. For `COc1ccc(C(CNC(=O)c2ccc(S(=O)(=O)Nc3ccc(F)cc3)cc2)N(C)C)cc1` (centres undefined), the Potency was inconclusive: 18.5 µM [inhibitor, single point]. In the case of `N#CC1=C(N)Oc2cc(O)ccc2C1c1ccc(Br)s1` (centres undefined), the Potency is reported as “inactive”. With `COc1cc(NC(=O)c2cnc(N)o2)cc(C(=O)Nc2cccc(C(F)(F)F)c2)c1` the Potency was active: 13.1 µM. For `CCN1CCN(c2ccc(N)cc2)CC1`, the Potency was “inactive”. For `Cc1cc(C)c(C#N)c(N2CCOCC2)n1`, the Potency was inconclusive: 0.329 µM [inhibitor, full curve, poor fit]. With `CC(C)C[C@H](NC(=O)c1nc[nH]c1C(=O)N(C)Cc1ccccc1)C(=O)OC(C)(C)C` the Potency was active: 7.38 µM. For `O=C(NCCc1csc(-c2cccnc2)n1)c1ccccc1Br`, the Potency was “inactive”. For `CCOc1c(Br)cc(C(=O)N2CCCN(C)CC2)cc1OC`, the Potency was “inactive”. In the case of `CCN1C(=O)[C@H]2[C@@H](c3ccc(C)cc3)N3C(=O)N(c4ccc(OC)cc4)C(=O)[C@@]3(Cc3ccccc3)[C@H]2C1=O`, the Potency is reported as inconclusive: 13.1 µM [inhibitor, single point]. For `CCN(CC)CCCNC(=O)c1cc(Cl)c(NC(=O)C2=C(C)OCCS2)cc1OC`, the Potency was inconclusive: 5.86 µM [inhibitor, partial curve]. For `Cc1ccc(N2C(=O)C(Cl)=C(N3CCCCCC3)C2=O)cc1`, the Potency was “inactive”. With `Cc1ccc(C(=O)NCc2cccnc2)o1` the Potency was inconclusive: 18.5 µM [inhibitor, single point]. With `O=C(CSC(=S)N1CCCCC1)Nc1ncc2c(n1)CCCC2=O` the Potency was “inactive”. With `COCc1nc(-c2ccc(-c3ccc(C)cc3)nc2OC)no1` the Potency was inconclusive: 4.15 µM [inhibitor, partial curve]. In the case of `CC(=O)c1cccc(NC(=O)CCn2c(=O)oc3ccccc32)c1`, the Potency is reported as “inactive”. In the case of `CN(C)CCCNC(=O)C1(O)c2cc(Br)ccc2NC(=O)N1c1ccc(Cl)cc1` (centres undefined), the Potency is reported as inconclusive: 11.7 µM [inhibitor, partial curve, poor fit]. For `O=C(/C=C/c1ccccc1Cl)N(Cc1ccccc1)C1CCS(=O)(=O)C1` (centres undefined), the Potency was inconclusive: 11.7 µM [inhibitor, partial curve]. With `Cc1ccc(Cn2nnc3c(=O)[nH]c(C4CCCN(C(=O)c5ccco5)C4)nc32)cc1` (centres undefined) the Potency was inconclusive: 11.7 µM [inhibitor, partial curve]. With `Cc1c(O)c2c3c(cccc3c1O)C(=O)N(c1ccccc1)C2=O` the Potency was active: 10.4 µM. With `O=C(Nc1cscc1S(=O)(=O)c1ccc(Cl)cc1)c1ccccc1Cl` the Potency was inconclusive: 13.1 µM [inhibitor, partial curve, poor fit]. With `CC1CCCCN1C(=O)COC(=O)/C=C/c1ccc2ccccc2n1` (centres undefined) the Potency was inconclusive: 0.586 µM [inhibitor, full curve, poor fit]. In the case of `COC(=O)C1=C(C(=O)OC)C2C(C)=CC(C)=CN2C(C(=O)OC)=C1C(=O)OC` (centres undefined), the Potency is reported as inconclusive: 4.15 µM [inhibitor, single point]. With `O=C(CCN1C(=O)C2CCCCC2C1=O)Nc1nc2c(F)cc(F)cc2s1` (centres undefined) the Potency was “inactive”. In the case of `O=C(NCC1CCCO1)c1cccc(NS(=O)(=O)c2ccccc2)c1` (centres undefined), the Potency is reported as inconclusive: 11.7 µM [inhibitor, partial curve, poor fit]. In the case of `COc1ccc(C)cc1Nc1n[n+](C)c(-c2c3ccccc3cc3ccccc23)s1`, the Potency is reported as inconclusive: 4.15 µM [inhibitor, full curve, poor fit]. With `Cc1ccc(C2CC(c3ccccc3)=NN2C(=O)CSc2nnc(-c3ccncc3)n2C)o1` (centres undefined) the Potency was inconclusive: 13.1 µM [inhibitor, single point]. With `CCC(C)(C)NC(=O)C(c1cccc(OC)c1OC)N(C(=O)CCC(=O)Nc1cc(C)on1)c1ccc2c(c1)OCCO2` (centres undefined) the Potency was inconclusive: 14.7 µM [inhibitor, partial curve, poor fit]. With `COc1ccc(C)cc1S(=O)(=O)N1CCN(S(=O)(=O)c2cc(C(=O)O)ccc2C)CC1` the Potency was inconclusive: 18.5 µM [inhibitor, single point]. In the case of `COc1cc(OC)c(N(C)S(=O)(=O)c2cccc(C(=O)NC3=NCCS3)c2)cc1Cl`, the Potency is reported as inconclusive: 9.28 µM [inhibitor, single point]. For `C#CCNC(=O)C1CCN(c2cc(C)nc(-c3ccccc3)n2)CC1`, the Potency was inconclusive: 6.57 µM [inhibitor, partial curve, poor fit]. For `CCOC(=O)N1CCC(N2C(=O)c3ccc(C(=O)NCCC(C)C)cc3C2=O)CC1`, the Potency was “inactive”. For `O=C(Cn1cnc2ccccc2c1=O)c1c[nH]c2ccccc12`, the Potency was active: 6.57 µM. In the case of `CC1(C(=O)N2CCC(CC3CC(c4cccc(Br)c4)=NO3)(C(=O)NCC3CCCCC3)CC2)CC1` (centres undefined), the Potency is reported as active: 2.94 µM. In the case of `CCOC(=O)Cn1nnnc1C(C(C)C)N(Cc1cccs1)Cc1cc2cc(C)ccc2[nH]c1=O` (centres undefined), the Potency is reported as inconclusive: 18.5 µM [inhibitor, single point]. With `CC(C)(C)c1ccc(C(=O)c2c[nH]c(C(=O)O)c2)cc1` the Potency was “inactive”. With `Cc1ccc(Cl)c(OCC(=O)Nc2ccc(S(=O)(=O)NC3=NCCCCC3)cc2)c1` the Potency was inconclusive: 5.22 µM [inhibitor, partial curve, poor fit].
